Measured values as given in patent US20240309105A1 (Boehringer Ingelheim, published 2024).
Numbering of substitutions follows the chain as printed. Results are given in words; binding and its absence hold for the method and conditions named. Some results given as binding are weak or reduced against the parent protein; the word gives no strength. One block for each binder: values may come before it.

Experiments:
[1] = biological target: T1, human CD40-Fc protein (human, UniProt P25942 21-193); test: ForteBio Octet, with and without 50% human serum
T1 construct: also called recombinant CD40 protein; not shown: Fc part

[2] = biological target: T2, cynomolgus monkey CD40 on cells (cynomolgus monkey, UniProt G7PG38 21-278); test: flow cytometry, FITC-labeled antibody on cynomolgus platelets
T2 construct: whole, on cells; Cell surface CD40 on cynomolgus B cells and platelets; also called Cyno CD40; CD40 on cynomolgus monkey B cells and platelets

[3] = biological target: T2, cynomolgus monkey CD40 on cells; test: directly labeled antibody, B cells and platelets in cynomolgus monkey whole blood

binding [1]: binds
B1: Antibody C (antibody, human IgG1, kappa, L234A L235A, V domains shown)
VH: QVQLVQSGAEVKKPGASVKVSCTASGFNIKDYYVHWVKQAPGQGLEWMGRIDPEDGDSKYAPKFQGKATMTADTSTSTVYMELSSLRSEDTAVYYCTTSYYVGTYGYWGQGTLVTVSS
VL: DIQMTQSPSSLSASVGDRVTITCSASSSVSYMLWFQQKPGKAPKLLIYSTSNLASGVPSRFSGSGSGTDFTLTISSLQPEDFATYYCQQRTFYPYTFGGGTKVEIKR
notes: also called humanized 2H11

binding [2]: binds
B2: 2H11 (antibody, V domains shown)
VH: EVQLQQSGAELVRPGASVKLSCTASGFNIKDYYVHWVKQRPEKGLEWIGRIDPEDGDSKYAPKFQGKATMTADTSSNTAYLHLSSLTSEDTAVYYCTTSYYVGTYGYWGQGTTLTVSS
VL: QIVLTQSPAIMSASPGEKVTITCSASSSVSYMLWFQQKPGTSPKLWIYSTSNLASGVPARFGGSGSGTSYSLTISRMEAEDAATYYCQQRTFYPYTFGGGTKLEIK
notes: Mouse monoclonal antibody; also called murine anti-CD40 mAb 2H11

binding [1]: binds
B3: Antibody A (antibody, human IgG1, kappa, L234A L235A, V domains shown)
VH: EVQLVESGGGLVKPGGSLRLSCAASGFTFSDYGMHWVRQAPGKGLEWVAYISSGNRIIYYADTVKGRFTISRDNAKNSLYLQMNSLRAEDTALYYCARQDGYRYAMDYWAQGTLVTVSS
VL: DIVMTQSPDSLAVSLGERATMSCKSSQSLLNSGNQKNYLTWHQQKPGQPPKLLIYWTSTRESGVPDRFSGSGSGTDFTLTISSLQAEDVAVYYCQNDYTYPLTFGGGTKVEIKR
notes: also called humanized 20E2

binding [1]: binds
binding [3]: binds
B4: Antibody B (antibody, human IgG1, kappa, L234A L235A, V domains shown)
VH: B3 VH with L93V, A110G
VL: B3 VL with R18K, A19V, M21I, S22N
notes: also called humanized 20E2
